This passage reports binding signal results from PMC7862700.

By UniProt entry, the sequences of proteins in these tests, tags left out. Where a name states a change or a piece, a line headed by the entry shows the natural chain unless it says otherwise.
UniProt Q9Y603: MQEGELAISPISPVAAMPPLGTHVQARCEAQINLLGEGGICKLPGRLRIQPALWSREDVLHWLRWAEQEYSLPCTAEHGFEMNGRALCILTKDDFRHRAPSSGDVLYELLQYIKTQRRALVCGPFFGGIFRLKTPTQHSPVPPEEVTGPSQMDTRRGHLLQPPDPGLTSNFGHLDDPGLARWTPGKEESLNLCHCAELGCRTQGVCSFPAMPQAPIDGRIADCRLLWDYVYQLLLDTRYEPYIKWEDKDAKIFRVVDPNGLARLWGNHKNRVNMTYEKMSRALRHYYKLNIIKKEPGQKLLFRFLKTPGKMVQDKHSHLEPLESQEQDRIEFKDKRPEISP
UniProt P41212: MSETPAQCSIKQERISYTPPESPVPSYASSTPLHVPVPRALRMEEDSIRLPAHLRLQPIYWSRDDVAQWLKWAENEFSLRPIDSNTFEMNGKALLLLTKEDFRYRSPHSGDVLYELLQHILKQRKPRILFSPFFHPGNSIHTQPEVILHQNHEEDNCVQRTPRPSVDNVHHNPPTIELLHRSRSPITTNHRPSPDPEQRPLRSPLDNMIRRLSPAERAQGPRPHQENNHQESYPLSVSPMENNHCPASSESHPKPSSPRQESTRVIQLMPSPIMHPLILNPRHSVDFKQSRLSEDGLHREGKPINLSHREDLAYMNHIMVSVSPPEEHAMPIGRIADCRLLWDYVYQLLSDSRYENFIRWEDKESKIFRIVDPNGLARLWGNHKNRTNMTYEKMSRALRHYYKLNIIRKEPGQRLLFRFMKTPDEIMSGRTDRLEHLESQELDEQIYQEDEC

This is a selection; strong and weak results do not stand in their true shares. At the low end of the ranking the order means little.

What all share (test): DAPPL (digital affinity profiling via proximity ligation, sequencing)
Holding throughout (conditions): 10 mM Tris-HCl pH 7.5, 50 mM NaCl, 1 mM DTT, 4% glycerol, room temperature, 30 min; GST-TFs on glutathione beads, 16-mer random dsDNA library, 0.1% …; high values mean tight binding; double strand, one strand shown; scale: fold enrichment (6-mer frequency, TF over GST control)

Assay [1] has as its target T1, ELF3 (UniProt P78545).
T1 sequence: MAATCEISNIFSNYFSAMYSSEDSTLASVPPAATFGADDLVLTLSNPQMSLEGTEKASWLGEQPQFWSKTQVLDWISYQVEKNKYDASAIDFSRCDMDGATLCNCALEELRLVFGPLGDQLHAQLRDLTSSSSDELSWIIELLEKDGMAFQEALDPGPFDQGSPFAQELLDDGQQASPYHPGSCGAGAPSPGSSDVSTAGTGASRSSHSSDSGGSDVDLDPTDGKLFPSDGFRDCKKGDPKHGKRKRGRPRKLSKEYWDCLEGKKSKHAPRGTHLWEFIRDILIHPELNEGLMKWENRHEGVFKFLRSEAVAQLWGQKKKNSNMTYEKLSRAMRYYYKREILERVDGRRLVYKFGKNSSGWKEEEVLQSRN

Assay [2] addresses ETV7 (UniProt Q9Y603).
Assay [3] addresses ETV6 (UniProt P41212).

GTAGAT: the binding signal in assay [1] stood at 1.01; in assay [2], 0.989; in assay [3], 0.961.

As to GTAAGC, the binding signal in assay [1] amounted to 0.939; in assay [2], 0.982; in assay [3], 0.975.

Consider GAAGGT, for which the binding signal in assay [1] amounted to 0.938; in assay [2], 0.977; in assay [3], 0.874.

Take CGAAGT: the binding signal came to 0.924 in assay [1] and 0.868 in assay [3].

For CTCTTA, the binding signal was 1.27 in assay [1] and 1.39 in assay [3].

With TTTCAT, the figures for the binding signal in assay [1] and in assay [3] were 1.11 and 1.13, respectively.
